These results are taken from PMC8824877.

Sequences of proteins named here, by UniProt entry; tags and fusion partners are left off.
UniProt P53355: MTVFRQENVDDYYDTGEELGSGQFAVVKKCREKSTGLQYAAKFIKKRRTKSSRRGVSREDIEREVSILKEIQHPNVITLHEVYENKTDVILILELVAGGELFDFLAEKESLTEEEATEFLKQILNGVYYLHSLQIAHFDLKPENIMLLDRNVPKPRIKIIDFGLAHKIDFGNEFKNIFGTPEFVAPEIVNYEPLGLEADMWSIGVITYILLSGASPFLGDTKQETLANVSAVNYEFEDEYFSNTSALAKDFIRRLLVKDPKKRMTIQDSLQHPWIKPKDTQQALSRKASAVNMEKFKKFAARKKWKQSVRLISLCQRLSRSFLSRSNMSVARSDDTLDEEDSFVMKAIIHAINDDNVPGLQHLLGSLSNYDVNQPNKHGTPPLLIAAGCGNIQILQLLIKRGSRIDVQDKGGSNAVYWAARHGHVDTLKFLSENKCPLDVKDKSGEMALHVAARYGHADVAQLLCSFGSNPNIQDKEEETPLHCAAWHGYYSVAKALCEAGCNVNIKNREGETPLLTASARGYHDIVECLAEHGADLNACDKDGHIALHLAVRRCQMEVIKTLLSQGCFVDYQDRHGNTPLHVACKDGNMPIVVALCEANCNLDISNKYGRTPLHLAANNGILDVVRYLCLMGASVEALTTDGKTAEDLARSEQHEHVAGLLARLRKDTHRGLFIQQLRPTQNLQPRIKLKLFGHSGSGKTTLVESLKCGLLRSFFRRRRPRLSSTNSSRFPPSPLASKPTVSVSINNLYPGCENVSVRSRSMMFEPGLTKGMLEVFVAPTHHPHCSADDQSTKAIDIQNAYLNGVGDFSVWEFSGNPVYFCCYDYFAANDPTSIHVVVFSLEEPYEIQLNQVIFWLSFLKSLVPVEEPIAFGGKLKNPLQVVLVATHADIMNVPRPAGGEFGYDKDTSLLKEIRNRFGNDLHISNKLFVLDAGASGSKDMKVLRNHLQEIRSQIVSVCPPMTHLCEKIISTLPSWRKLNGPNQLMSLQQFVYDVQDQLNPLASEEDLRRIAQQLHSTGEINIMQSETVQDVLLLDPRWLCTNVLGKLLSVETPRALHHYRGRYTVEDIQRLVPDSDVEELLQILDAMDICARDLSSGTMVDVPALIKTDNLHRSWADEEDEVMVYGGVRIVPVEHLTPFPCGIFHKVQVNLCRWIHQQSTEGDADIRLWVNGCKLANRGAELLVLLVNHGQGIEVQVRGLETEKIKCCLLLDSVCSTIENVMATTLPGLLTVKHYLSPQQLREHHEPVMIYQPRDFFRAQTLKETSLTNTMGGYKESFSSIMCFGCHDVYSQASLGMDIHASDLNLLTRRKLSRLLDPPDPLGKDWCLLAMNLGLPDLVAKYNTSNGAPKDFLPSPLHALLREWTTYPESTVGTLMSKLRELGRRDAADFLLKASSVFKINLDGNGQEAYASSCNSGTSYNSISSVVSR
UniProt P53350: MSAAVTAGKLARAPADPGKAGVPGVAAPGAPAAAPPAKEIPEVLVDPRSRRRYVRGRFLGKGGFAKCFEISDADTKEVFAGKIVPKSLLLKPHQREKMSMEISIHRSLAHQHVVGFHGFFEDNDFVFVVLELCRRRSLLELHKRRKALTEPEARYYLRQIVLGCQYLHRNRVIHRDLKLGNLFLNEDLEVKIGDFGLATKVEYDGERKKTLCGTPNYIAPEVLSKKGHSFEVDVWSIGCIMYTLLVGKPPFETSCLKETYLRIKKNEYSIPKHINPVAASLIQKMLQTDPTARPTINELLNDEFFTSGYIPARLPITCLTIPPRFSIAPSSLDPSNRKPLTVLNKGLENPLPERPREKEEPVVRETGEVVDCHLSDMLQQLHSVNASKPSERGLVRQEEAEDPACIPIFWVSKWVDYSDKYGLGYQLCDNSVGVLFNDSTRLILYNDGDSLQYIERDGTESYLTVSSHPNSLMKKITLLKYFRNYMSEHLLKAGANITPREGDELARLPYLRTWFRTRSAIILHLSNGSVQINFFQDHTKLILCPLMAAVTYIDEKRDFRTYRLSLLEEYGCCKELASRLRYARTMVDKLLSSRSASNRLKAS

Results are given in words; binding and its absence hold for the method and conditions named. Binding seen in cells or lysates may run through a third protein. Some entries that bind do so weakly or less than the wild type.

In the assay the target is Flag-DAPK1 (UniProt P53355). Description: co-IP; HeLa cells overexpressing V5-PLK1 and Flag-DAPK; IP with V5- or Flag-specific antibodies; precipitates and 5% of the input immunoblotted.

Consider “V5-tagged PLK1 (from UniProt P53350 1-603)”, for which the binding result is recorded as “binds”.
